Drawing on paper PMC11500381, this text covers binding for 4 substances.

Amino acid sequences for entries named in this document (tags omitted).
UniProt Q96SW2: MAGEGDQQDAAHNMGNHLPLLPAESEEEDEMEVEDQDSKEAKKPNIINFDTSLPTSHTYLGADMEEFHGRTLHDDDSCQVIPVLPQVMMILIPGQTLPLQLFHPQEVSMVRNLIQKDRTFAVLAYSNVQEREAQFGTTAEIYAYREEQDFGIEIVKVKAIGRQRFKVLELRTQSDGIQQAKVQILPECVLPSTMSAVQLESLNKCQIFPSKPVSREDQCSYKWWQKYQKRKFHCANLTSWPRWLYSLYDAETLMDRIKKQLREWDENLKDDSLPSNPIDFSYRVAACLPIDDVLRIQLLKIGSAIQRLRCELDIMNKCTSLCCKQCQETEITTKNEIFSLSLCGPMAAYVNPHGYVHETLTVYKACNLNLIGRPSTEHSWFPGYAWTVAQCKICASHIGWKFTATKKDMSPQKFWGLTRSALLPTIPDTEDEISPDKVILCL
UniProt Q8C7D2: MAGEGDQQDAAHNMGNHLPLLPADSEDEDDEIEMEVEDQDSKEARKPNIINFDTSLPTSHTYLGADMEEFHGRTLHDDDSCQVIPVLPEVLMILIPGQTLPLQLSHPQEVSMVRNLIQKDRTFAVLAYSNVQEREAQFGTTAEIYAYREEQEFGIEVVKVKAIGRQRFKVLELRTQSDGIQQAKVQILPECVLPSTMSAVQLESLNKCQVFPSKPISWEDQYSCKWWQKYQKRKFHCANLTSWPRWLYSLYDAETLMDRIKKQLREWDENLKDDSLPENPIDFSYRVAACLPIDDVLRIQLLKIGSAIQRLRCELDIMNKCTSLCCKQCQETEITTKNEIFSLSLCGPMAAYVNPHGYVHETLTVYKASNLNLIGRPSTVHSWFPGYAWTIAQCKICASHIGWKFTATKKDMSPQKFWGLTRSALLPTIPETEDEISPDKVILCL
UniProt O75190: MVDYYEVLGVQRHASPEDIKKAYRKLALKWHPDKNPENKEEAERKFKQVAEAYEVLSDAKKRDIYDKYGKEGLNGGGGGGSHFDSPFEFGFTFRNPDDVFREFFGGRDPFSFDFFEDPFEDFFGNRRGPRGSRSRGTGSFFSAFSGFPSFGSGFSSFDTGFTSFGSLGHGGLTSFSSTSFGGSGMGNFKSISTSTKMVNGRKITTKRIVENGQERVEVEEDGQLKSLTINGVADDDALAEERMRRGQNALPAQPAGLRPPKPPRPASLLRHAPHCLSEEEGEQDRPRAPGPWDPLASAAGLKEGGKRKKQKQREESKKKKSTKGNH
UniProt P25685: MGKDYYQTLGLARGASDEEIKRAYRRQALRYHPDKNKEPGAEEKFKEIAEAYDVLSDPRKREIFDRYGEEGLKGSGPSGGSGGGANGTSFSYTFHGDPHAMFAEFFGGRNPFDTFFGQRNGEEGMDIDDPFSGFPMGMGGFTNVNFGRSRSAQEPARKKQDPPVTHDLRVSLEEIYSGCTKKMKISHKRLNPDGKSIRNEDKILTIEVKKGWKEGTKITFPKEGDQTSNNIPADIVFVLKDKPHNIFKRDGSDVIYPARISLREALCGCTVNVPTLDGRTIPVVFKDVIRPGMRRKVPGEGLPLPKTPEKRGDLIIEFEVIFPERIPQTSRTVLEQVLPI
UniProt Q9QYJ3: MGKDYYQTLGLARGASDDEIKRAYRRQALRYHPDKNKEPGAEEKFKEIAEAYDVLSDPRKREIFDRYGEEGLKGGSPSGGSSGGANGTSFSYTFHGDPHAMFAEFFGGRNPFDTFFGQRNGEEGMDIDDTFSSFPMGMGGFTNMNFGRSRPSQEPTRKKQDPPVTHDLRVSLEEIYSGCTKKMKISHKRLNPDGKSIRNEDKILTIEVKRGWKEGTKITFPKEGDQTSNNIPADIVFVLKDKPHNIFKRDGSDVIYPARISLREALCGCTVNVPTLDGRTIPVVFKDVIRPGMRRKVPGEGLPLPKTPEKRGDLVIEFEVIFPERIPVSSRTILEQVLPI

Results are given in words; binding and its absence hold for the method and conditions named. Binding seen in cells or lysates may run through a third protein. Some binding calls cover weakened binding; strength is not graded here.

Assay [1] has as its target CRBN (construct not shown; SH-SY5Y cells) (UniProt Q96SW2). As to the kind of experiment: co-IP; CRBN with DJ6 in the presence of Ac-LLRH-NH2 or scrambled Ac-RHLL-NH2; CoIP and western blot (Supplementary Fig. 8a). In general terms: Immunoblotting shows a protein as a band on a membrane.
The target is the same in assay [2]. Nature of the assay: co-IP; CRBN with DJ6 (Supplementary Fig. 2a); constructs and antibodies not shown.
Assay [3] shares this target. Nature of the assay: co-IP; called 'CRBN pull-down assay'; SH-SY5Y cells with DJ6 knocked down (Supplementary Fig. 2c).
Another assay addresses FLAG-CRBN (UniProt Q96SW2). Nature of the assay: co-IP; SH-SY5Y cells co-transfected with Myc-DJ1 and FLAG-CRBN; lysate incubated with scrambled peptide or Ac-DGRT-NH2; CoIP with α-FLAG antibody.
A further assay has as its target HA-CRBN (Cereblon) (UniProt Q8C7D2). Nature of the assay: co-IP; SH-SY5Y cells transiently co-transfected with HA-CRBN and Myc-DJ1; lysate immunoprecipitated with IgG control or α-HA antibody; protein G Sepharose; n = 5.
In assay [4] the target is endogenous CRBN of mouse brain (mouse (endogenous in C57BL/6 brain)) (UniProt Q8C7D2). As to the kind of experiment: co-IP; whole-brain lysates of C57BL/6 mice; endogenous CRBN pulled down with α-CRBN antibody; immunoblot.

For the substance “DJ6 (DNAJB6; construct not shown) (from UniProt O75190 1-326)”, the binding result in assay [1] and in assay [2] was “binds” in each case.

Regarding “DJ1 (DNAJB1; construct not shown; SH-SY5Y cells) (from UniProt P25685 1-340)”, in assay [3], the binding entry is “binds”.

Turning to “Myc-DJ1 (DNAJB1) (from UniProt P25685 1-340)”, the binding entry with FLAG-CRBN and with HA-CRBN (Cereblon) was “binds” in each case.

For the substance “endogenous DJ1 (DNAJB1) of mouse brain (from UniProt Q9QYJ3 1-340)”, the binding result in assay [4] was “binds”.
